Reference: PMC11761205
No constants are given. Whether binding was seen depends on the method and setting. Binding seen in cells or lysates may run through a third protein. Some results given as binding are weak or reduced against the parent protein; the word gives no strength. For some of these results: Tags and fused reporters may be left off the sequences shown. Each block holds one molecule with its values, some of them ahead of it.

By UniProt entry, the sequences of proteins in these tests, tags left out.
UniProt P61006: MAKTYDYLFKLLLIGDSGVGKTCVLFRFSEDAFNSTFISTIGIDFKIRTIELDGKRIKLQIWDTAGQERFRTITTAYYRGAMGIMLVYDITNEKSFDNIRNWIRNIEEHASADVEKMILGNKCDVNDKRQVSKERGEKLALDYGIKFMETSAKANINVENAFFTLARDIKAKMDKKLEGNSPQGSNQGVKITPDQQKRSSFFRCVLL
UniProt P08151: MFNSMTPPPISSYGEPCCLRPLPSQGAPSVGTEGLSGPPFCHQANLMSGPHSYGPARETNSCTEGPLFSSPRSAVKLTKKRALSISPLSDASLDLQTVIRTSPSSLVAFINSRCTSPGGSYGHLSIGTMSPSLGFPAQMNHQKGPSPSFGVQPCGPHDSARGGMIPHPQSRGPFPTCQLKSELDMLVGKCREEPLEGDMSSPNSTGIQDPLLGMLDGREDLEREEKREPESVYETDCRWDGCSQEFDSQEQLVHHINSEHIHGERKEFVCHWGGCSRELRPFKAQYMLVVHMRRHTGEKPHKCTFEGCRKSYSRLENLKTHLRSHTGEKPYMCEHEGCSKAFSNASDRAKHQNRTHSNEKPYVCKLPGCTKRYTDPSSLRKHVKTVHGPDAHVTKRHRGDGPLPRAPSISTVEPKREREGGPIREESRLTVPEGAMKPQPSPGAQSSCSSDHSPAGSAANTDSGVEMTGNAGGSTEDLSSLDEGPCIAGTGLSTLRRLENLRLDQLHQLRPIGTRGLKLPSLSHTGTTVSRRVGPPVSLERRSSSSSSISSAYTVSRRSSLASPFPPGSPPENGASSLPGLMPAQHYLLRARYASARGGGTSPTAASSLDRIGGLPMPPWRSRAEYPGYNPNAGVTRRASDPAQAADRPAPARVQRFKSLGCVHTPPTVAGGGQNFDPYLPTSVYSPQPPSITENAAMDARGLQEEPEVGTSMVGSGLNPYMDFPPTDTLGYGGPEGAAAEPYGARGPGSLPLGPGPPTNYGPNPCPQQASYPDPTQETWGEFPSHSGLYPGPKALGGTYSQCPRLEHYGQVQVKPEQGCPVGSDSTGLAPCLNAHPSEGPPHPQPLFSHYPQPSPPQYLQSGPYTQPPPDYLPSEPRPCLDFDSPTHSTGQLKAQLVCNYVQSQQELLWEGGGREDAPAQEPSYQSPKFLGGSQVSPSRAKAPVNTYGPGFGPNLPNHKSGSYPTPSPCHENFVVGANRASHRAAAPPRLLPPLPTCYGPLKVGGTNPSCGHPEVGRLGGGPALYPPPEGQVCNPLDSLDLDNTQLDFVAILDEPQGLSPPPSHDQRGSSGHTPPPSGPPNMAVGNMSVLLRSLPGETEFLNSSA

Tests used:
[1] = target: T1, Suppressor of Fused (human (endogenous in SK-OV-3 and HO8910)) (UniProt Q9UMX1); test: co-IP; endogenous proteins; IP: SuFu, WB: GLI1; SK-OV-3 cells with RAB8A shRNA or scrambled shRNA, HO8910 cells with ectopic Flag-RAB8A or empty vector; IgG as negative control; IP lysis buffer 100 mM NaCl, 50 mM Tris-HCl pH 8.0, 5 mM EDTA, 1% Brij35
T1 sequence: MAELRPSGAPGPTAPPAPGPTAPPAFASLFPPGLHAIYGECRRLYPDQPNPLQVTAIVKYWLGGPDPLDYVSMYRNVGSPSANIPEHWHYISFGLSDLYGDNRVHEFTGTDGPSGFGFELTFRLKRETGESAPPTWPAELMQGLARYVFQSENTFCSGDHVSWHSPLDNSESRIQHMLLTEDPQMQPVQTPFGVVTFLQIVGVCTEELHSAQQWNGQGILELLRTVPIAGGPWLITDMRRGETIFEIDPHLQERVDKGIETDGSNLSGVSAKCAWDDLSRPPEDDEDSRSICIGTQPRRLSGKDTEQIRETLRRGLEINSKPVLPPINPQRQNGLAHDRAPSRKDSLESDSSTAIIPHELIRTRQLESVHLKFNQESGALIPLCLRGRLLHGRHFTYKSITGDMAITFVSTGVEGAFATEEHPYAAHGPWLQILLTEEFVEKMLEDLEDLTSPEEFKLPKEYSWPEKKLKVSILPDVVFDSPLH

[2] = target: T2, G protein-coupled receptor 137 (human (endogenous in SK-OV-3 and A2780)) (UniProt Q96N19); test: co-IP; endogenous proteins in SK-OV-3 and A2780 cells; IP: RAB8A, WB: GPR137, and reciprocal IP: GPR137, WB: RAB8A (SK-OV-3); IgG as negative control; IP lysis buffer 100 mM NaCl, 50 mM Tris-HCl pH 8.0, 5 mM EDTA, 1% Brij35
T2 sequence: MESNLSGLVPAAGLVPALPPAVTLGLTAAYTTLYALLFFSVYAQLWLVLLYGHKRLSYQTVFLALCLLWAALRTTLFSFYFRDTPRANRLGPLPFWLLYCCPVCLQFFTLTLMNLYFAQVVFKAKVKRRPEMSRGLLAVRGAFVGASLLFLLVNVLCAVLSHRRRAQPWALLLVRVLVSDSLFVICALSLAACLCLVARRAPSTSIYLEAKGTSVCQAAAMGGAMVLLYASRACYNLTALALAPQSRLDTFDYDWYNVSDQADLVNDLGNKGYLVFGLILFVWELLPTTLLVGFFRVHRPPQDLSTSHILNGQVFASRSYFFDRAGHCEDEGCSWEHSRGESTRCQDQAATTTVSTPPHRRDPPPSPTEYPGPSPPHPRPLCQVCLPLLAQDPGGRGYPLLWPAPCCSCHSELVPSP

[3] = target: Ras-related protein Rab-8A (human (endogenous in SK-OV-3 and A2780)) (UniProt P61006); test: co-IP; endogenous proteins in the separated membrane fraction of SK-OV-3 and A2780 cells; IP: RAB8A, WB: GPR137; IgG as negative control, EZRIN as loading control
[4] = target: Ras-related protein Rab-8A (human (endogenous in SK-OV-3 and A2780)) (UniProt P61006); test: co-IP; endogenous proteins in SK-OV-3 and A2780 cells; IP: RAB8A, WB: GPR137, and reciprocal IP: GPR137, WB: RAB8A (SK-OV-3); IgG as negative control; IP lysis buffer 100 mM NaCl, 50 mM Tris-HCl pH 8.0, 5 mM EDTA, 1% Brij35

binding [1]: binds
Molecule: GLI1 (from UniProt P08151 1-1106)

binding [2]: no binding
Molecule: Ras-related protein Rab-8A (from UniProt P61006 1-207)

binding [3]: no binding
binding [4]: no binding
B1: G protein-coupled receptor 137 (receptor, UniProt Q96N19 1-417)
chain: MESNLSGLVPAAGLVPALPPAVTLGLTAAYTTLYALLFFSVYAQLWLVLLYGHKRLSYQTVFLALCLLWAALRTTLFSFYFRDTPRANRLGPLPFWLLYCCPVCLQFFTLTLMNLYFAQVVFKAKVKRRPEMSRGLLAVRGAFVGASLLFLLVNVLCAVLSHRRRAQPWALLLVRVLVSDSLFVICALSLAACLCLVARRAPSTSIYLEAKGTSVCQAAAMGGAMVLLYASRACYNLTALALAPQSRLDTFDYDWYNVSDQADLVNDLGNKGYLVFGLILFVWELLPTTLLVGFFRVHRPPQDLSTSHILNGQVFASRSYFFDRAGHCEDEGCSWEHSRGESTRCQDQAATTTVSTPPHRRDPPPSPTEYPGPSPPHPRPLCQVCLPLLAQDPGGRGYPLLWPAPCCSCHSELVPSP
